Data source: PubChem BioAssay AID652243 (Drosophila RNAi Screening Center, 2013)
The screen tested about 24,000 reagents; below is a random part of those that have a named target and a result. Over the whole deposit, 246 (1%) got an active call. 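Plates not normalised; calls are printed but the firefly/Renilla ratio behind them is not deposited; fold cut for lowering reported inconsistently.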 Raw values are not corrected between plates. Reagents against one gene are numbered here. Not given: the amount of reagent.

- Purpose: 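Fly regulators of androgen-dependent reporter output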 (primary screen)
- Cell system: Drosophila S2R+ cells
- Reagents: long dsRNA against Drosophila genes
- Time to read-out: 72 h (48 h, then 24 h hormone)
- Conditions: synthetic androgen R1881 at 10 nM for 24 h
- Measured: 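Per-well raw luminescence of the androgen-driven firefly reporter and of the Renilla control, two replicates each, without normalisation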
- Reading the numbers: firefly reporter light: higher = more light from androgen-responsive reporter; Renilla control light: higher = more constitutive control signal (cell number, transfection)
- Call rule: 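Hit when the log firefly-to-Renilla ratio dropped or increased by a fixed fold versus the mean of GFP or LacZ controls across duplicate plates; lowering cut given as 1.5 and as 3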
- Meaning of the calls: active = hit: reporter lowered or raised; inactive = no hit

gene,reagent no.,"firefly reporter light, replicate 1","firefly reporter light, replicate 2","Renilla control light, replicate 1","Renilla control light, replicate 2",activity call
CG15387,1,1.01e5,96493,1.05e6,6.99e5,inactive
CASK,1,3.00e5,2.44e5,1.74e6,1.97e6,inactive
CASK,2,2.11e5,3.61e5,3.36e6,3.77e6,inactive
CASK,3,2.19e5,2.62e5,2.94e6,3.06e6,inactive
CASK,4,8.58e5,5.47e5,1.72e6,2.49e6,inactive
CASK,5,5.75e5,3.88e5,1.12e6,6.24e5,inactive
CASK,6,,,,,inactive
CG9920,1,1.62e5,2.00e5,2.65e6,2.36e6,inactive
px (plexus),1,6.80e5,7.53e5,1.89e6,1.79e6,inactive
px (plexus),2,4.16e5,4.51e5,9.32e5,9.65e5,inactive
Nrd1 (Nardilysin),1,81655,80356,6.63e5,8.06e5,inactive
RpLP0-like (Ribosomal protein LP0-like),1,1.29e6,1.12e6,1.58e6,1.63e6,inactive
RpLP0-like (Ribosomal protein LP0-like),2,8.21e5,9.31e5,1.68e6,1.81e6,inactive
Gart (GART trifunctional enzyme),1,1.17e5,1.93e5,1.49e6,2.13e6,inactive
Gart (GART trifunctional enzyme),2,3.45e5,5.64e5,7.19e5,5.69e5,inactive

4 of these entries, reformatted:
CASK #6
- activity call: inactive

CG9920
- firefly reporter light, replicate 1: 1.62e5
- firefly reporter light, replicate 2: 2.00e5
- Renilla control light, replicate 1: 2.65e6
- Renilla control light, replicate 2: 2.36e6
- activity call: inactive

px (plexus) #1
- firefly reporter light, replicate 1: 6.80e5
- firefly reporter light, replicate 2: 7.53e5
- Renilla control light, replicate 1: 1.89e6
- Renilla control light, replicate 2: 1.79e6
- activity call: inactive

px (plexus) #2
- firefly reporter light, replicate 1: 4.16e5
- firefly reporter light, replicate 2: 4.51e5
- Renilla control light, replicate 1: 9.32e5
- Renilla control light, replicate 2: 9.65e5
- activity call: inactive

The listing continues:
gene,reagent no.,"firefly reporter light, replicate 1","firefly reporter light, replicate 2","Renilla control light, replicate 1","Renilla control light, replicate 2",activity call
Npl4 (Nuclear protein localization 4),1,80715,1.11e5,4.76e5,4.89e5,inactive
Npl4 (Nuclear protein localization 4),2,1.56e5,2.03e5,2.26e6,2.31e6,inactive
CG30378,1,1.12e5,1.61e5,3.81e5,6.12e5,inactive
CG33966,1,53868,70448,6.47e5,6.13e5,inactive
CG33966,2,8.95e5,9.03e5,1.07e6,1.19e6,inactive
scaf (scarface),1,8.54e5,9.52e5,1.12e6,1.81e6,inactive
CG30392,1,9.96e5,9.65e5,7.52e5,6.61e5,inactive
scro (scarecrow),1,2.29e5,1.86e5,2.14e6,2.03e6,inactive
mthl13 (methuselah-like 13),1,2.13e5,98629,5.53e5,6.09e5,inactive
